Results on 19 compounds are retold here after PubChem BioAssay AID274 (DTP/NCI, 2004).

For the assay, the system named is BDF1 mice, Lewis lung carcinoma iv, survival T/C. Kind of assay: NCI In Vivo Anticancer Drug Screen. Data for tumor model Lewis Lung Carcinoma (intravenous) in B6D2F1 (BDF1) mice. Conditions: T/C endpoint: median survival time, higher T/C = longer survival. The protocol:
The antitumor activity of compounds was measured in mice bearing transplantable tumors. Survival or tumor size were measured and the results are expressed as the measurement made in the treated group (T) divided by the measurement made in the vehicle treated control group (C). The tumor model used in this assay is Lewis Lung Carcinoma (intravenous) in B6D2F1 (BDF1) mice

Where [1] appears, read: dose: 12.5 mg/kg/injection, schedule: Q01DX009 (ip), vehicle: Klucel (hydroxypropylcellulose) (HPC).
The mark [2] stands for this setting: dose: 100.0 mg/kg/injection, schedule: Q01DX009 (ip), vehicle: Klucel (hydroxypropylcellulose) (HPC).
[3] abbreviates: dose: 400.0 mg/kg/injection, schedule: Q01DX009 (ip), vehicle: Klucel (hydroxypropylcellulose) (HPC).
Where [4] appears, read: dose: 200.0 mg/kg/injection, schedule: Q01DX009 (ip), vehicle: suspension in saline.

The list is a part of this screen's results and no random one: it is rich in T/C values a quarter to a half above the control, in often repeated tests (any T/C) and in doses without a T/C. Further doses and runs are listed elsewhere. T/C is the treated group as % of the vehicle group. Some entries give survivors of the animals treated and no T/C: the source holds a T/C of zero for them, seemingly a mark for toxic or unscored doses. Some doses without a T/C left all or most animals alive at the check, yet need not have been tolerated: survival well below the control is almost never listed, so the zero probably covers shortened survival too. Survivors were counted at the toxicity check, usually on the fifth day, unless a day is given; later deaths do not show. Schedules are NCI's codes, read here as Q, the interval in days (D) or hours (H), X, the number of doses. Some structures stand for samples that the source files as different forms (salt, stereo form or complex); doses refer to the form tested. For survival time, the PubChem record calls one and a half times the control and up active, and a quarter to a half above the control has no call in these data; cut-offs in other NCI protocols can differ. Numbered stars: 1 amine (or outer) side, 2 acyl side, 3 side chain; on linkers, the order of the positions; unused ones are H or OH. Square brackets hold non-standard residues; d marks the D form. Peptide text beside a SMILES is read from it. * marks the point of attachment. X2 = CCC(=O)CC1CC(C)CC(C(=O)[*:2])N1[*:1]; X1 = CCCCCCCCC(C)C(=O)*; Aib = CC(C)(N)C(=O)O; X3 = CC(CN(C)CCO)N*

With `Cc1cc(N(CCOS(C)(=O)=O)CCOS(C)(=O)=O)ccc1C=Nc1ccc(-c2nc(Cc3ccccc3)sc2C)cc1`, under setting [1], the T/C was 136 % of control. The survivor count is listed as 9 of 10 under setting [2]; 9 of 10 (dose: 200.0 mg/kg/injection, schedule: Q01DX009 (ip), vehicle: Klucel (hydroxypropylcellulose) (HPC)); 10 of 10 under setting [3].
Take `O=C(O)c1ccc(C(=O)O)c(C(=O)O)c1.[NH-]C1CCCCC1[NH-].[Pt+2]`: the survivor count by setting is: (dose: 6.25 mg/kg/injection, schedule: Q01DX009 (ip), vehicle: sodium bicarbonate) 10 of 10; (dose: 12.5 mg/kg/injection, schedule: Q01DX009 (ip), vehicle: sodium bicarbonate) 10 of 10.
`O=C1C(=O)c2cccnc2-c2ncccc21`: the survivor count is 9 of 10 (dose: 6.25 mg/kg/injection, schedule: Q01DX009 (ip), vehicle: Klucel (hydroxypropylcellulose) (HPC)) and 0 of 10 under setting [1].
For `CC(CNC(=O)CCOS(C)(=O)=O)NC(=O)CCOS(C)(=O)=O` (stereo unspecified), the T/C (dose: 200.0 mg/kg/injection, schedule: Q01DX009 (ip), vehicle: saline) is 132 % of control. Moreover, the survivor count (dose: 400.0 mg/kg/injection, schedule: Q01DX009 (ip), vehicle: saline) is recorded as 10 of 10.
On to `CCCNC1=C(C)C(=O)C2=C(C1=O)[C@H](COC(N)=O)[C@]1(OC)[C@@H]3N[C@@H]3CN21`, for which the survivor count is reported as 10 of 10 (dose: 6.25 mg/kg/injection, schedule: Q01DX009 (ip), vehicle: saline) and 10 of 10 (dose: 12.5 mg/kg/injection, schedule: Q01DX009 (ip), vehicle: saline).
Turning to `CCCCCCCCC(C)C(=O)N1CCCC1C(=O)N1C(CC(=O)CC)CC(C)CC1C(=O)NC(C)C(=O)NC(C)(C)C(=O)NC(C)(C)C(=O)NC(C(=O)NC(C)C(=O)NC(C)(C)C(=O)NC(C)(C)C(=O)NC(C)CN(C)CCO)C(C)CC` (stereo unspecified) (X1-P[X2]A[Aib][Aib]IA[Aib][Aib]-X3; configuration not given here), the survivor count (dose: 10.0 mg/kg/injection, schedule: Q01DX009 (ip), vehicle: Klucel (hydroxypropylcellulose) (HPC)) was 0 of 10.
On to `Nc1ccn(C2OC(COC(=O)C34CC5CC(CC(C5)C3)C4)C(O)C2O)c(=O)n1` (stereo unspecified), for which the T/C (dose: 25.0 mg/kg/injection, schedule: Q01DX009 (ip), vehicle: saline with Tween-80) is 130 % of control. Besides, the survivor count was 10 of 10 (dose: 50.0 mg/kg/injection, schedule: Q01DX009 (ip), vehicle: saline with Tween-80) and 9 of 10 (dose: 100.0 mg/kg/injection, schedule: Q01DX009 (ip), vehicle: saline with Tween-80).
As to `CC(=O)OC1C2(CC3N4C(=O)C5(CO)SSC4(CC31O)C(=O)N5C)OC(C)C(C)(C)C2=O` (stereo unspecified), the T/C (dose: 0.31 mg/kg/injection, schedule: Q01DX009 (ip), vehicle: saline) is 145 % of control and the T/C (dose: 1.25 mg/kg/injection, schedule: Q01DX009 (ip), vehicle: saline) is 135 % of control.
As to `CCC1OCC(C(Cl)CCl)O1` (stereo unspecified), the survivor count under setting [3] was 1 of 10.
As for `Cc1c(N)nc([C@H](CC(N)=O)NC[C@H](N)C(N)=O)nc1C(=O)N[C@H](C(=O)N[C@H](C)[C@@H](O)[C@H](C)C(=O)N[C@H](C(=O)NCCc1nc(-c2nc(C(=O)NCCC[S+](C)C)cs2)cs1)[C@@H](C)O)C(OC1OC(CO)C(O)C(O)C1OC1OC(CO)C(O)C(OC(N)=O)C1O)c1cnc[nH]1` (stereo partly specified), the T/C is, setting by setting: (dose: 8.0 mg/kg/injection, schedule: Q01DX009 (ip), vehicle: saline) 128 % of control; (dose: 16.0 mg/kg/injection, schedule: Q01DX009 (ip), vehicle: saline) 140 % of control; (dose: 27.0 mg/kg/injection, schedule: Q04DX003 (ip), vehicle: saline) 125 % of control; (dose: 40.0 mg/kg/injection, schedule: Q04DX003 (ip), vehicle: saline) 134 % of control. The survivor count is 5 of 8 (dose: 12.0 mg/kg/injection, schedule: Q04DX003 (ip), vehicle: saline); 10 of 10 (dose: 32.0 mg/kg/injection, schedule: Q01DX009 (ip), vehicle: saline); 6 of 8 (dose: 60.0 mg/kg/injection, schedule: Q04DX003 (ip), vehicle: saline); 10 of 10 (dose: 64.0 mg/kg/injection, schedule: Q01DX009 (ip), vehicle: saline).
With `CCOC(=O)c1c[nH]c2oc(/C=N/N3CC(CN4CCOCC4)OC3=O)cc2c1=O` (stereo unspecified), the T/C under setting [4] was 140 % of control.
Consider `Nc1nc2n[nH]nc2c(=O)[nH]1`, for which the survivor count (dose: 100.0 mg/kg/injection, schedule: Q01DX009 (ip), vehicle: suspension in saline) was 10 of 10; the survivor count under setting [4] is given as 10 of 10; the survivor count (dose: 400.0 mg/kg/injection, schedule: Q01DX009 (ip), vehicle: suspension in saline) was 7 of 10.
Take `O=C1c2ccccc2C(=O)c2c3c(cc(NCCNCCO)c21)N(CCO)CCN3`: the survivor count (dose: 12.5 mg/kg/injection, schedule: Q01DX009 (ip), vehicle: DMSO) is on record as 8 of 10; the survivor count (dose: 25.0 mg/kg/injection, schedule: Q01DX009 (ip), vehicle: DMSO) is recorded as 8 of 10; the survivor count (dose: 100.0 mg/kg/injection, schedule: Q01DX009 (ip), vehicle: DMSO) is on record as 8 of 10; the survivor count (dose: 200.0 mg/kg/injection, schedule: Q01DX009 (ip), vehicle: DMSO) is listed as 7 of 10; the survivor count (dose: 400.0 mg/kg/injection, schedule: Q01DX009 (ip), vehicle: DMSO) is on record as 1 of 10.
`O=C1c2ccccc2C(=O)c2c(NCCNCCO)ccc(NCCNCCO)c21`: the T/C reads like this: (dose: 1.0 mg/kg/injection, schedule: Q01DX005 (ip), vehicle: saline) 129 % of control; (dose: 2.0 mg/kg/injection, schedule: Q01DX005 (ip), vehicle: saline with Tween-80) 147 % of control; (dose: 4.0 mg/kg/injection, schedule: Q01DX005 (ip), vehicle: saline) 129 % of control; (dose: 8.0 mg/kg/injection, schedule: Q01DX009 (ip), vehicle: saline with Tween-80) 140 % of control. Moreover, the survivor count by setting is: (dose: 16.0 mg/kg/injection, schedule: Q01DX009 (ip), vehicle: saline with Tween-80) 10 of 10; (dose: 32.0 mg/kg/injection, schedule: Q01DX009 (ip), vehicle: saline with Tween-80) 10 of 10.
As to `CCCCCC[C@H]([C@H](C)O)n1cnc2c(N)ncnc21`, under “dose: 50.0 mg/kg/injection, schedule: Q01DX009 (ip), vehicle: Klucel (hydroxypropylcellulose) (HPC)”, the T/C was 130 % of control.
Take `COC1NC(=O)NC(=O)C1=[N+]=[N-]` (stereo unspecified): the survivor count (dose: 16.0 mg/kg/injection, schedule: Q01DX009 (ip), vehicle: water) was 8 of 10.
Consider `O=C1OC(C(O)CO)C(O)=C1O` (stereo unspecified), for which the survivor count (dose: 800.0 mg/kg/injection, schedule: Q01DX009 (ip), vehicle: saline) was 8 of 10 and the survivor count (dose: 1600.0 mg/kg/injection, schedule: Q01DX009 (ip), vehicle: saline) was 0 of 10.
`CC(=O)O[C@@H]1CO[C@H]2O[C@H]3[C@@H](C(C=O)=C[C@H](O)[C@@H]4C5=C(C(C)C)CC[C@]5(C)CC[C@@]34C)[C@@]2(O)C1=O`: the survivor count by setting is: (dose: 3.0 mg/kg/injection, schedule: Q01DX009 (ip), vehicle: Klucel (hydroxypropylcellulose) (HPC)) 4 of 9; (dose: 6.0 mg/kg/injection, schedule: Q01DX009 (ip), vehicle: Klucel (hydroxypropylcellulose) (HPC)) 7 of 10; (dose: 12.0 mg/kg/injection, schedule: Q01DX009 (ip), vehicle: Klucel (hydroxypropylcellulose) (HPC)) 1 of 10; (dose: 24.0 mg/kg/injection, schedule: Q01DX009 (ip), vehicle: Klucel (hydroxypropylcellulose) (HPC)) 0 of 10.
`C1CCC2OCCOCCOC3CCCCC3OCCOCCOC2C1` (stereo unspecified): the survivor count under setting [2] is 0 of 10.
